For series [1], the target named is SSB(G26C) G27C (UniProt P0AGE0). The series can be described thus: tryptophan fluorescence quenching. Conditions: apparent affinity, weaker than ssDNA70; 50 mM Tris-HCl pH 7.5, 3 mM MgCl2, 100 mM (or 200 mM) NaCl; MDCC titrations 25 C; recombinant protein; protein details: pET151 vector, His tag (HisTrap purified).
The target of series [2] is MDCC-SSB G27C (UniProt P0AGE0). Description: MDCC fluorescence titration. The note with it: 50 nM tetramer, 100 or 200 mM NaCl, 3 mM MgCl2, apparent weaker than ssDNA70; 50 mM Tris-HCl pH 7.5, 3 mM MgCl2, 100 mM (or 200 mM) NaCl; MDCC titrations 25 C; recombinant protein.

The chains behind the UniProt entries cited, without tags or fusion partners. Where a name states a change or a piece, a line headed by the entry shows the natural chain unless it says otherwise.
UniProt P0AGE0: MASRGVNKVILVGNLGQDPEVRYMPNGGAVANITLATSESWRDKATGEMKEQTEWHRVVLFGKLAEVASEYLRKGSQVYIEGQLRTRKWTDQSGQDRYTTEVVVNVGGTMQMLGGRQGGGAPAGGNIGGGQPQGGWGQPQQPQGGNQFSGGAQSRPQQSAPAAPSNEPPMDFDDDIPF

Construct, isoform or probe ends are uncertain for at least one entry. For some assays here: The direction of at least one scale is not stated here.

In the case of “UUAGUUGUUCGUAGUGCUCGUCUGGCUCUGGAUUACCCGCUUAGUUGUUCGUAGUGCUCGUCUGGCUCUG [ssRNA70]”, the Kd in series [1] worked out at 200 nM. In series [2], the binding signal (nM (saturation point)) stood at 101.
